Counter-ions that a name gives are not always drawn. Some of the results follow. Cut-off read from the data, not from the text of the source: active = 1.25 or more and inactive = the rest. Repeats are few or missing, and single values can be far off.
system: Kcc2-LUC knock-in mouse primary cortical neurons (Kcc2 promoter reporter); test: Kcc2 promoter-driven luciferase activity relative to vehicle control (fold of vehicle (ratio)); higher = stronger Kcc2 promoter activation (Kcc2 expression enhancer); conditions: 100 nM; 48 h

Row | Compound | Kcc2 promoter-driven luciferase activity
1 | Cc1c(Cl)ccc2c1NC(=O)C2(O)C(C(=O)c1ccccc1)c1ccccc1 (centres undefined) | inactive: 0.91
2 | CC1(C)C[C@]23[C@@H]4COC(=O)[C@H]2CC[C@H]1[C@@H]3CC4=O [Quadrone] | inactive: 0.42
3 | C[N+](C)(C)C(Cc1c[nH]c(=S)[nH]1)C(=O)O (centres undefined) [Sympectothion] | inactive: 0.408
4 | CC1(C)O[C@@H]2C[C@H]3[C@@H]4C[C@H](F)C5=CC(=O)C=C[C@]5(C)[C@@]4(F)[C@@H](O)C[C@]3(C)[C@]2(C(=O)CO)O1 | active: 1.33
5 | CCOC(=O)CNC(=O)NC12CC3CC(CC(C3)C1)C2 [ethyl 2-(1-adamantylcarbamoylamino)acetate] | inactive: 1.13
6 | O=[N+]([O-])c1cc(-c2nc(=S)[nH][nH]2)ccc1O | active: 6.14
7 | COc1ccc2cc3[n+](cc2c1OC)CCc1cc2c(cc1-3)OCO2 [Berberine Chloride] | inactive: 0.9
8 | Cc1c2cnccc2c(C)c2c1c1ccccc1n2CCOC(=O)c1ccccc1 [2-(5,11-dimethylpyrido[4,3-b]carbazol-6-yl)ethyl benzoate] | inactive: 0.49
9 | O=c1c(Br)c(-c2ccccc2)[nH]c2ccccc12 [3-Bromo-2-phenyl-1H-quinolin-4-one] | active: 5.5
10 | O=C(ON=C1c2ccccc2C(Br)C(Br)c2ccccc21)c1ccccc1 (centres undefined) | inactive: 1.22
11 | COc1ccc(/C=C2\CCc3ccccc3C2=O)cc1OC [(2E)-2-Veratrylidenetetralin-1-one] | inactive: 0.99
12 | C=C(C)[C@@H]1CC[C@]2(CO)CC[C@]3(C)[C@H](CC[C@@H]4[C@@]5(C)CC[C@H](O)C(C)(C)[C@@H]5CC[C@]43C)[C@@H]12 [Betulinic alcohol] | inactive: 0.26
13 | O=C1C(Cl)=C(N2CCN(C3=C(Cl)C(=O)c4ccccc4C3=O)CC2)C(=O)c2ccccc21 [2,2'-Piperazine-1,4-diylbis(3-chloronaphthoquinone)] | inactive: 0.41
14 | COC(=O)C1CCC(=O)N1C(c1ccc(OC)cc1)c1cc(OC)c(OC)c(OC)c1 (centres undefined) | inactive: 0.662
15 | CN1CCN(CCNc2ccc(CO)c3sc4ccccc4c(=O)c23)CC1 | active: 1.55
16 | NC(=O)C1=C[C@H]2[C@@H]3C=C[C@@]2(O)C(=O)O[C@@H]3O1 [Echinosporin] | inactive: 1.16
17 | CC(C)[Si]1(C(C)C)OCC2OC(n3cnc4c(N)ncnc43)C(N)C2O[Si](C(C)C)(C(C)C)O1 (centres undefined) | active: 1.35
18 | Nc1nccc2c1ncn2C1C=C(CO)C(O)C1O (centres undefined) [3-Deazaneplanocin, hydrochloride] | inactive: 0.96
19 | Cc1nc2c(o1)C(=O)c1ccccc1C2=Nc1ccccc1 [2-Methyl-4-phenyliminobenzo[f][1,3]benzoxazol-9-one] | inactive: 0.75
20 | CCCCCCCCCCCCCCCC(=O)O[C@@H]1[C@@H](C)[C@@]2(O)[C@@H](C=C(CO)C[C@]3(O)C(=O)C(C)=C[C@@H]23)[C@H]2C1(OC(C)=O)[C@]2(C)CO (some centres undefined) [Croton Factor F1] | inactive: 1

Row | Compound | Kcc2 promoter-driven luciferase activity
21 | COC(=O)NC1C(C)OC(OC2C/C=C(/C)C3C=CC4C(OC5CC(OC6CCC(OC7CC(O)C(OC8CCC(O)C(C)O8)C(C)O7)C(C)O6)C(OC(C)=O)C(C)O5)C(C)CC(C)C4C3(C)/C(O)=C3/C(=O)OC4(CC(C=O)=CC(O)C4/C=C\2C)C3=O)CC1(C)[N+](=O)[O-] (centres undefined) | inactive: 0.8
22 | Cc1cc2cc3cc(C)c(N)cc3nc2cc1N [Acridine Yellow G] | inactive: 0.48
23 | CN(C)CCCN1c2ccccc2Sc2ccc3ccccc3c21 [3-Benzo[a]phenothiazin-12-yl-N,N-dimethylpropan-1-amine] | inactive: 1.13
24 | C=C(CN(C)C)C(=O)c1ccccc1Cl | inactive: 1.23
25 | CC(/C=C/C(O)=C1/C(=O)CNC1=O)=C\[C@@H](C)[C@H]1O[C@@]2(C)O[C@H](C(=O)[C@H]3O[C@]32C)[C@@H]1C [Tirandamycin A] | inactive: 0.99
26 | NC1=C(Br)C(=O)c2ncccc2C1=O [6-amino-7-bromoquinoline-5,8-dione] | inactive: 0.29
27 | CCCCCCCCCCCCCCCCCCOP(=O)([O-])OCC[N+](C)(C)C [Octadecylphosphocholine] | inactive: 0.79
28 | Cc1ccccc1OCC(COC(=O)Nc1ccccc1)OC(=O)Nc1ccccc1 (centres undefined) | inactive: 0.17
29 | COc1ccc(-c2cc(=O)c3c(O)cc(O)cc3o2)cc1OC [5,7-Dihydroxy-3',4'-dimethoxyflavone] | inactive: 0.87
30 | CN(C)c1ccc(/C=C2\Cc3ccccc3C2=O)cc1Br [2-(3-Bromo-4-(dimethylamino)benzylidene)-1-indanone] | inactive: 0.89
31 | Nc1cc2[nH]cnc2c(=O)[nH]1 [Dezaguanine] | active: 2
32 | COC(=O)C(=O)C(C(=O)C(=O)Nc1cc(C)ccc1C)c1nc2ccc(C(=O)c3ccccc3)cc2[nH]c1=O (centres undefined) | inactive: 0.79
33 | CC(C)CCCCCCCCCCCCC(=O)NCC(=O)NC1C(C)OC(Nc2ncnc3nc[nH]c23)C(O)C1O (centres undefined) | inactive: 0.84
34 | CCC(C#N)(c1ccccc1)N(CCc1ccccc1)C(=O)c1ccccc1 (centres undefined) [N-(1-Cyano-1-phenylpropyl)-N-phenethylbenzamide] | inactive: 0.95
35 | Cc1cc(N)c2ccccc2[n+]1CCCCCCCCCC[n+]1c(C)cc(N)c2ccccc21 [Decamine] | inactive: 0.55
36 | COc1cc(C[C@H]2c3cc(OC)c(OC)cc3CCN2C)c(Oc2cc3c(cc2OC)-c2c(OC)c(OC)cc4c2[C@H](C3)N(C)CC4)cc1OC | inactive: 1.19
37 | Cn1cnc([N+](=O)[O-])c1Sc1nnnn1-c1ccccc1 [5-(3-Methyl-5-nitroimidazol-4-yl)sulfanyl-1-phenyltetrazole] | inactive: 1.13
38 | C=CC(=O)N1C/C(=C\c2ccc(Cl)cc2)C(=O)/C(=C/c2ccc(Cl)cc2)C1 [1-Acryloyl-3,5-bis(4-chlorobenzylidene)piperidine-4-one] | inactive: 0.8
39 | CN(C)c1ccc(/C=N/N=C2\C(=O)Nc3c(Cl)cc(Cl)cc32)cc1 | inactive: 0.92

Exported as labelled records: 2 of the compounds above
Cc1ccccc1OCC(COC(=O)Nc1ccccc1)OC(=O)Nc1ccccc1 (centres undefined)
  Kcc2 promoter-driven luciferase activity: inactive: 0.17
COc1ccc(-c2cc(=O)c3c(O)cc(O)cc3o2)cc1OC [5,7-Dihydroxy-3',4'-dimethoxyflavone]
  Kcc2 promoter-driven luciferase activity: inactive: 0.87
